Source: the supplement of paper PMC4604168 (melanoma cell lines)
This is one part of the list. Repeats are few or missing, and single values can be far off.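 The apoptosis fraction was the count of cleaved-PARP antibody-stained nuclei relative to all DNA-stained nuclei, imaged in 1,536-well plates. Screening doses were set so most cells survived, and baseline and induced cleaved-PARP levels vary greatly across cell lines.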

Tests used:
Assay in all cases: cleaved PARP positive nuclei fraction relative to DMSO control; melanoma cells; higher = more apoptosis
Settings in all cases: library dose: low library concentration; 72 h
[1] = tested on: 501Mel
[2] = tested on: A101D
[3] = tested on: A2058
[4] = tested on: A375
[5] = tested on: C32
[6] = tested on: CBRC013 (line from a melanoma biopsy)
[7] = tested on: CBRC014 (line from a melanoma biopsy)
[8] = tested on: CBRC016 (line from a melanoma biopsy)
[9] = tested on: CBRC017 (line from a melanoma biopsy)
[10] = tested on: CBRC034 (line from a melanoma biopsy)
[11] = tested on: COLO792
[12] = tested on: COLO800
[13] = tested on: COLO829
[14] = tested on: G361
[15] = tested on: IPC-298
[16] = tested on: IST-MEL1
[17] = tested on: LB2518-MEL
[18] = tested on: LOXIMVI

SMILES | cleaved PARP positive nuclei fraction [1] | cleaved PARP positive nuclei fraction [2] | cleaved PARP positive nuclei fraction [3] | cleaved PARP positive nuclei fraction [4] | cleaved PARP positive nuclei fraction [5] | cleaved PARP positive nuclei fraction [6] | cleaved PARP positive nuclei fraction [7] | cleaved PARP positive nuclei fraction [8] | cleaved PARP positive nuclei fraction [9] | cleaved PARP positive nuclei fraction [10] | cleaved PARP positive nuclei fraction [11] | cleaved PARP positive nuclei fraction [12] | cleaved PARP positive nuclei fraction [13] | cleaved PARP positive nuclei fraction [14] | cleaved PARP positive nuclei fraction [15] | cleaved PARP positive nuclei fraction [16] | cleaved PARP positive nuclei fraction [17] | cleaved PARP positive nuclei fraction [18]
COc1cc(Nc2ncc(F)c(Nc3ccc4c(n3)NC(=O)C(C)(C)O4)n2)cc(OC)c1OC [Tamatinib] + CC(C)CCN1c2nc(Nc3cc(F)c(O)c(F)c3)ncc2N(C)C(=O)C1C [BID1870] (first compound 0.4 µM, partner dose 0.2 µM) | 46.7% | 104% | 189% | 229% | 64.2% | 68.2% | 113% | 90% | 64.9% | 47.6% | 301% | 160% | 102% | 144% | 207% | 36.5% | 372% | 1530%
COc1cc(Nc2ncc(F)c(Nc3ccc4c(n3)NC(=O)C(C)(C)O4)n2)cc(OC)c1OC [Tamatinib] + COc1cc2ncnc(Nc3ccc(Oc4ccccc4)cc3)c2cc1OC [SrcI1] (first compound 0.4 µM, partner dose 2 µM) | 48.9% | 195% | 36.2% | 127% | 60.8% | 140% | 96.5% | 92.7% | 109% | 140% | 152% | 114% | 106% | 166% | 32.6% | 92.4% | 88.4% | 35.9%
Cn1cncc1[C@@](N)(c1ccc(Cl)cc1)c1ccc2c(c1)c(-c1cccc(Cl)c1)cc(=O)n2C [tipifarnib] + Cc1cc([N+](=O)[O-])ccc1NS(=O)(=O)c1cc(Cl)ccc1Cl [FH535] (first compound 0.01 µM, partner dose 1 µM) | 102% | 118% | 81.7% | 130% | 150% | 301% | 152% | 1640% | 374% | 442% | 74.1% | 118% | 116% | 121% | 95.4% | 128% | 102% | 39.4%
COCC[n+]1c2c(n(Cc3cnccn3)c1C)C(=O)c1ccccc1C2=O + Oc1cc(-c2nc(-c3ccccc3)[nH]c2-c2ccncc2)ccc1Cl [L779450] (first compound 0.0004 µM, partner dose 0.2 µM) | 85.4% | 116% | 400% | 426% | 75.4% | 151% | 149% | 80.5% | 88.9% | 113% | 182% | 256% | 92.5% | 80.5% | 213% | 32.5% | 339% | 122%
Cn1nnc2c(C(N)=O)ncn2c1=O [temozolomide] + CCc1ccc(CCOc2ccc(CC3SC(=O)NC3=O)cc2)nc1 [pioglitazone] (first compound 2 µM, partner dose 2 µM) | 173% | 222% | 97.2% | 120% | 46.9% | 437% | 108% | 66.3% | 76.1% | 20.8% | 208% | 100% | 101% | 77.7% | 90.3% | 330% | 167% | 20.3%
Cn1c(Nc2ccc(C(F)(F)F)cc2)nc2cc(Oc3ccnc(-c4ncc(C(F)(F)F)[nH]4)c3)ccc21 + CCc1ccc(CCOc2ccc(CC3SC(=O)NC3=O)cc2)nc1 [pioglitazone] (first compound 0.08 µM, partner dose 2 µM) | 91.3% | 190% | 93.8% | 511% | 146% | 142% | 115% | 103% | 80.4% | 106% | 229% | 88.5% | 85% | 229% | 86.3% | 133% | 75.5% | 150%
C[C@]1(c2nc3c(C(N)=O)cccc3[nH]2)CCCN1 [Veliparib] + O=S(=O)(c1ccccc1)N(CC(F)(F)F)c1ccc(C(O)(C(F)(F)F)C(F)(F)F)cc1 [T0901317] (first compound 1.4 µM, partner dose 1.4 µM) | 178% | 57% | 45% | 212% | 104% | 317% | 112% | 21.2% | 90.6% | 170% | 100% | 122% | 102% | 32.7% | 62.2% | 41.8% | 186% | 129%
O=C(Nc1cccc(Cl)c1)Nc1ncc(CCNc2ncnc3ccsc23)s1 + CCCCCCCCCCCC1=C(O)C(=O)C=C(O)C1=O [Embelin] (first compound 0.0008 µM, partner dose 1.2 µM) | 52.9% | 246% | 55.5% | 157% | 50.9% | 84.5% | 95% | 116% | 69.3% | 89.8% | 171% | 120% | 96.2% | 174% | 109% | 30.9% | 148% | 87.3%
NC(=O)Nc1cc(-c2cccc(F)c2)sc1C(=O)N[C@H]1CCCNC1 + COc1cc(N2CCC(N3CCN(C)CC3)CC2)ccc1Nc1ncc(Cl)c(Nc2ccccc2S(=O)(=O)C(C)C)n1 [NVP-TAE684] (first compound 0.02 µM, partner dose 0.08 µM) | 80.2% | 135% | 84.1% | 96.7% | 162% | 96.6% | 128% | 92.8% | 101% | 230% | 104% | 99.6% | 43.4% | 33.5% | 153% | 39.2% | 71.7% | 94.4%
COCC[n+]1c2c(n(Cc3cnccn3)c1C)C(=O)c1ccccc1C2=O + COc1cc(N2CCC(N3CCN(C)CC3)CC2)ccc1Nc1ncc(Cl)c(Nc2ccccc2S(=O)(=O)C(C)C)n1 [NVP-TAE684] (first compound 0.0004 µM, partner dose 0.08 µM) | 35.6% | 72.5% | 117% | 191% | 26.2% | 281% | 104% | 68.8% | 69.4% | 70.9% | 67.7% | 74.5% | 146% | 135% | 374% | 116% | 96.6% | 53.5%
CC1(C)NC(=O)N(c2ccc([N+](=O)[O-])c(C(F)(F)F)c2)C1=O [nilutamide] + O=c1cc(-c2cccc3c2Sc2ccccc2S3)oc(N2CCOCC2)c1 [KU55933] (first compound 1 µM, partner dose 1 µM) | 109% | 32.4% | 35% | 124% | 69.5% | 127% | 78.3% | 101% | 75.9% | 37.4% | 94.8% | 57.4% | 88.3% | 83.4% | 26.2% | 88.6% | 67% | 88.6%
Cc1nc(Nc2ncc(C(=O)Nc3c(C)cccc3Cl)s2)cc(N2CCN(CCO)CC2)n1 [dasatanib] + COc1cc2ncnc(Nc3ccc(Oc4ccccc4)cc3)c2cc1OC [SrcI1] (first compound 0.004 µM, partner dose 2 µM) | 157% | 71.8% | 130% | 152% | 206% | 180% | 145% | 146% | 89.6% | 94.6% | 259% | 50% | 95.3% | 68.3% | 42.8% | 70.3% | 79.1% | 121%
C=CCn1c(=O)c2cnc(Nc3ccc(N4CCN(C)CC4)cc3)nc2n1-c1cccc(C(C)(C)O)n1 + COC(=O)c1sccc1S(=O)(=O)Nc1ccc(Nc2ccccc2)cc1OC [GSK0660] (first compound 0.02 µM, partner dose 1 µM) | 147% | 106% | 56.2% | 380% | 57.4% | 83.9% | 111% | 105% | 95% | 127% | 181% | 220% | 83.1% | 65.3% | 71.1% | 108% | 171% | 105%
CO[C@@H]1[C@H](N(C)C(=O)c2ccccc2)C[C@H]2O[C@]1(C)n1c3ccccc3c3c4c(c5c6ccccc6n2c5c31)C(=O)NC4 [Midostaurin] + CC(C)CCN1c2nc(Nc3cc(F)c(O)c(F)c3)ncc2N(C)C(=O)C1C [BID1870] (first compound 0.08 µM, partner dose 0.2 µM) | 89% | 71.2% | 262% | 94.2% | 46.6% | 218% | 140% | 128% | 81.8% | 174% | 168% | 122% | 118% | 53.7% | 117% | 118% | 87% | 159%
O=C(CCCCCCC(=O)Nc1ccccc1)NO [vorinostat] + O=S(=O)(c1ccccc1)N(CC(F)(F)F)c1ccc(C(O)(C(F)(F)F)C(F)(F)F)cc1 [T0901317] (first compound 0.08 µM, partner dose 1.4 µM) | 69.2% | 36.2% | 77% | 69.8% | 63.4% | 90.6% | 116% | 137% | 96.1% | 44.5% | 121% | 16.8% | 102% | 157% | 39.1% | 127% | 81% | 109%
O=C(CCCCCCC(=O)Nc1ccccc1)NO [vorinostat] + Oc1nc(-c2ccc(C(F)(F)F)cc2)nc2c1CSCC2 [XAV939] (first compound 0.08 µM, partner dose 2 µM) | 38.6% | 233% | 215% | 42.9% | 60.5% | 264% | 93.4% | 96% | 133% | 89.1% | 88% | 411% | 117% | 80.7% | 92.8% | 92% | 70.2% | 45.6%
C[C@@H]1CCN(C(=O)CC#N)C[C@@H]1N(C)c1ncnc2[nH]ccc12 + N#Cc1c(O)c2c(-c3ccc(-c4ccccc4O)cc3)csc2[nH]c1=O [A769662] (first compound 1 µM, partner dose 2 µM) | 80.9% | 152% | 54.2% | 49.6% | 55.4% | 148% | 101% | 55.1% | 79.3% | 89.6% | 43.6% | 158% | 90.2% | 125% | 40.5% | 106% | 77.8% | 13.6%
O=C(Nc1cccc(Cl)c1)Nc1ncc(CCNc2ncnc3ccsc23)s1 + O=C(Nc1ccccc1)c1cc([N+](=O)[O-])ccc1Cl [GW9662] (first compound 0.0008 µM, partner dose 2 µM) | 134% | 172% | 99.8% | 127% | 220% | 43.9% | 99.3% | 28.8% | 154% | 192% | 104% | 65.9% | 110% | 116% | 46.8% | 89.1% | 94.5% | 70%

2 records picked at random from the list so far:
SMILES | cleaved PARP positive nuclei fraction [1] | cleaved PARP positive nuclei fraction [2] | cleaved PARP positive nuclei fraction [3] | cleaved PARP positive nuclei fraction [4] | cleaved PARP positive nuclei fraction [5] | cleaved PARP positive nuclei fraction [6] | cleaved PARP positive nuclei fraction [7] | cleaved PARP positive nuclei fraction [8] | cleaved PARP positive nuclei fraction [9] | cleaved PARP positive nuclei fraction [10] | cleaved PARP positive nuclei fraction [11] | cleaved PARP positive nuclei fraction [12] | cleaved PARP positive nuclei fraction [13] | cleaved PARP positive nuclei fraction [14] | cleaved PARP positive nuclei fraction [15] | cleaved PARP positive nuclei fraction [16] | cleaved PARP positive nuclei fraction [17] | cleaved PARP positive nuclei fraction [18]
COCC[n+]1c2c(n(Cc3cnccn3)c1C)C(=O)c1ccccc1C2=O + COc1cc(N2CCC(N3CCN(C)CC3)CC2)ccc1Nc1ncc(Cl)c(Nc2ccccc2S(=O)(=O)C(C)C)n1 [NVP-TAE684] (first compound 0.0004 µM, partner dose 0.08 µM) | 35.6% | 72.5% | 117% | 191% | 26.2% | 281% | 104% | 68.8% | 69.4% | 70.9% | 67.7% | 74.5% | 146% | 135% | 374% | 116% | 96.6% | 53.5%
O=C(CCCCCCC(=O)Nc1ccccc1)NO [vorinostat] + O=S(=O)(c1ccccc1)N(CC(F)(F)F)c1ccc(C(O)(C(F)(F)F)C(F)(F)F)cc1 [T0901317] (first compound 0.08 µM, partner dose 1.4 µM) | 69.2% | 36.2% | 77% | 69.8% | 63.4% | 90.6% | 116% | 137% | 96.1% | 44.5% | 121% | 16.8% | 102% | 157% | 39.1% | 127% | 81% | 109%
